{"sequences": {"note": "Sequences of proteins named here, by UniProt entry; tags and fusion partners are left off.", "UniProt Q0JBA9, entry or part of it": "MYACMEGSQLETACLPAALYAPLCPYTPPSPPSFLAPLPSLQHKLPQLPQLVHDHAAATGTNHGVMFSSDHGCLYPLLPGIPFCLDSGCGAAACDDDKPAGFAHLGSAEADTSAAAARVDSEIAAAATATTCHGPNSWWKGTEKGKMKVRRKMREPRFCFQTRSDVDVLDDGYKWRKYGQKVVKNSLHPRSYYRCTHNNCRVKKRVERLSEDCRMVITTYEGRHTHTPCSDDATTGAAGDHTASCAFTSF"}, "source": "paper PMC7819943", "about": "“Rice protein-binding microarrays: a tool to detect cis-acting elements near promoter regions in rice”", "note": "The other results are listed elsewhere or left out.", "data": [{"molecular_target": "OsWRKY34 (Oryza sativa, UniProt Q0JBA9 1-250)", "test": "protein-binding microarray (RPBM); PBS, 2% BSA, 51.3 ng/ul salmon testes DNA, 50 uM zinc acetate, 200 nM TF, 25 C, 1 h; high values mean tight binding", "settings": "protein: recombinant; tags: N-terminal polyhistidine and DsRed monomer fusion (pET32a); label: CyDye5-dUTP incorporated in the synthesized complementary strand; 3' TTTTT single-stranded linker to array surface; dsDNA, one strand shown", "method_in_brief": "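The binding signal is fluorescence intensity per array feature (arbitrary units). Readings came from an Axon 4000B scanner after a washed, 2% BSA-blocked, double-stranded custom Agilent array had been incubated for 1 h at 25 °C with 200 nM protein and 50 µM zinc acetate. The protein was a Ni–NTA-purified transcription factor fused N-terminally to polyhistidine and DsRed, expressed in E. coli BL21-CodonPlus.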", "values": [{"sequence": "GAGGTTGTTTTGTCGTCTAGCAAGTGTGTGTCGGGTGGCGCGGAGTCACCTAGTGCAG", "binding signal": "9220 fluorescence intensity (a.u.)"}, {"sequence": "CCATCCTTTTCCAAGATTATTATAGCTACAGGTTCTCAGACGGAGTCACCTAGTGCAG", "binding signal": "8420 fluorescence intensity (a.u.)"}, {"sequence": "TGGGATGGAGGGAGTAGTACAAATTTAAAATATTCAAAATCGGAGTCACCTAGTGCAG", "binding signal": "9940 fluorescence intensity (a.u.)"}, {"sequence": "GGTGTTGTCAGGGTGAGGGGAGTCAGATGCGCGCGGAATGCGGAGTCACCTAGTGCAG", "binding signal": "8620 fluorescence intensity (a.u.)"}, {"sequence": "TGGATCTTCTTGTTCTGCTGAAGCAGCCGCCTCTCGTCGTCGGAGTCACCTAGTGCAG", "binding signal": "8560 fluorescence intensity (a.u.)"}, {"sequence": "ATTCTTGGCCCTGTTCCTATGGGCTTTGGTGGGCTTTAAACGGAGTCACCTAGTGCAG", "binding signal": "11700 fluorescence intensity (a.u.)"}, {"sequence": "TGGTTTGAGTTGTCGTGTTTCCTCTCGGCGGCGCGGGGCACGGAGTCACCTAGTGCAG", "binding signal": "10500 fluorescence intensity (a.u.)"}, {"sequence": "ACAATTGTATTCCTGCCAGAATCCTCTGTTTTTTCATTCCCGGAGTCACCTAGTGCAG", "binding signal": "9260 fluorescence intensity (a.u.)"}, {"sequence": "CCGGGTGCGATCGCTCATCACGGCCTCTGTTTCCGCGCTCCGGAGTCACCTAGTGCAG", "binding signal": "9560 fluorescence intensity (a.u.)"}, {"sequence": "TGCATACTAACTCTTTACCAGAATACTTGTCATTCTAAATCGGAGTCACCTAGTGCAG", "binding signal": "8480 fluorescence intensity (a.u.)"}, {"sequence": "CCACACACGCACCGCCCTCTCTACCCGCACCACCGTAGCACGGAGTCACCTAGTGCAG", "binding signal": "9540 fluorescence intensity (a.u.)"}, {"sequence": "ATGGTTTGATATTTTGATCAGGCTTTATCTCTCGGTTCACCGGAGTCACCTAGTGCAG", "binding signal": "8130 fluorescence intensity (a.u.)"}, {"sequence": "GTCACTACCCTTTTGTAACTGTAAGTCGTGTTAATTAAGCCGGAGTCACCTAGTGCAG", "binding signal": "9900 fluorescence intensity (a.u.)"}, {"sequence": "ACGGAAACCCTAACCCTATGCGTCTCGCTTTCCCAGCCGACGGAGTCACCTAGTGCAG", "binding signal": "10500 fluorescence intensity (a.u.)"}, {"sequence": "TTAGTCGCAATCTATACAATTAGTTATTTTTTAAGCATATCGGAGTCACCTAGTGCAG", "binding signal": "8390 fluorescence intensity (a.u.)"}, {"sequence": "TACATCCTTAGTTCCTTGACCACCAGCACATAAACACAAACGGAGTCACCTAGTGCAG", "binding signal": "9010 fluorescence intensity (a.u.)"}, {"sequence": "ACCAGCCACGTTGCCCAAATCGCTCCTGACCAGACACAAGCGGAGTCACCTAGTGCAG", "binding signal": "8340 fluorescence intensity (a.u.)"}, {"sequence": "AGAACAGTTTTTAATCTGACATGTGCCTGTAGTTTGTTGTCGGAGTCACCTAGTGCAG", "binding signal": "10600 fluorescence intensity (a.u.)"}, {"sequence": "TTTTTTACCATGGGTCTTGCATTGAATTTTTCTTTTTTTTCGGAGTCACCTAGTGCAG", "binding signal": "9890 fluorescence intensity (a.u.)"}, {"sequence": "CATACCGTCCTCCGCGATTTAACCATCTCCATCTCCACCGCGGAGTCACCTAGTGCAG", "binding signal": "8120 fluorescence intensity (a.u.)"}, {"sequence": "TCGTCCCATCTCCACCCTTTCCTCAGGCAGGCGCACATCTCGGAGTCACCTAGTGCAG", "binding signal": "8840 fluorescence intensity (a.u.)"}, {"sequence": "ATGACTTCCCTCTGCTCTGTTATTTTCATGTTCTTTGATACGGAGTCACCTAGTGCAG", "binding signal": "8640 fluorescence intensity (a.u.)"}, {"sequence": "AACCGTGTGCAGCATTGTTTTTACTCTCTTCTACCATTTGCGGAGTCACCTAGTGCAG", "binding signal": "8440 fluorescence intensity (a.u.)"}, {"sequence": "TTTTTGCTGCTGACTTATATTAATATTGGTACGCGTCGTCCGGAGTCACCTAGTGCAG", "binding signal": "8300 fluorescence intensity (a.u.)"}, {"sequence": "GAATGATCGCTAGAGTAAGAGCGCCCAACCGTTGACTCGGCGGAGTCACCTAGTGCAG", "binding signal": "8980 fluorescence intensity (a.u.)"}, {"sequence": "ACTCGCTCTCTCCATCTCGTCTCGCCCAAGCGCACGCGTTCGGAGTCACCTAGTGCAG", "binding signal": "8970 fluorescence intensity (a.u.)"}, {"sequence": "GACCACTAGCAGCCTCGTAACGTTTGCCTCATTTCATCAGCGGAGTCACCTAGTGCAG", "binding signal": "10500 fluorescence intensity (a.u.)"}, {"sequence": "GTGTGTGTGCGAGTGAGTGTTTGGGCTGACAAGTGGTATCCGGAGTCACCTAGTGCAG", "binding signal": "10000 fluorescence intensity (a.u.)"}, {"sequence": "TACATTGTGAAACGGAGGGAGTAGTAACTAAACAAGCGCTCGGAGTCACCTAGTGCAG", "binding signal": "8520 fluorescence intensity (a.u.)"}, {"sequence": "GTCTATTTATTCAGAAGGGCCTCAATTACAAGCTTGGCAACGGAGTCACCTAGTGCAG", "binding signal": "8100 fluorescence intensity (a.u.)"}, {"sequence": "TTTATCTTTCTTTGTTTGTCCCTTGCATCATTACTCATATCGGAGTCACCTAGTGCAG", "binding signal": "14200 fluorescence intensity (a.u.)"}, {"sequence": "CTCACTCGATTTTCTCACTCAAATTTACAGTGCATTTTCTCGGAGTCACCTAGTGCAG", "binding signal": "8760 fluorescence intensity (a.u.)"}, {"sequence": "CCACCACTGACCGATTCACCTCGCCGCCCGCCGCCCGCCCCGGAGTCACCTAGTGCAG", "binding signal": "8520 fluorescence intensity (a.u.)"}, {"sequence": "TTTTGCTTTGGTTGGTTTGCTCGTTTTTTTTTTCTTTTCTCGGAGTCACCTAGTGCAG", "binding signal": "19600 fluorescence intensity (a.u.)"}, {"sequence": "CACCCAAACCAAATCAAATCCGTCCATCCATTCGCCTCTACGGAGTCACCTAGTGCAG", "binding signal": "8960 fluorescence intensity (a.u.)"}, {"sequence": "CGAACCTCGCTCGTCAGTCTCTCGATTTCTCGAACCTTCTCGGAGTCACCTAGTGCAG", "binding signal": "9120 fluorescence intensity (a.u.)"}, {"sequence": "GATATTACTTTAATTACTTTTCCTTTAGTACTCTTCTTTTCGGAGTCACCTAGTGCAG", "binding signal": "10600 fluorescence intensity (a.u.)"}, {"sequence": "CAGTGCTACTTATTCACTTCCTTTTGTTTTCTGCATCAGGCGGAGTCACCTAGTGCAG", "binding signal": "10800 fluorescence intensity (a.u.)"}, {"sequence": "CTCCTTTTGGATCCCTGTGTTTGGCCAACTCGCTTTTGTCCGGAGTCACCTAGTGCAG", "binding signal": "15200 fluorescence intensity (a.u.)"}, {"sequence": "CTTTTGACCCGTCTTTGACCACGCCCCAGGCAAGCCAGCCCGGAGTCACCTAGTGCAG", "binding signal": "10700 fluorescence intensity (a.u.)"}, {"sequence": "GTCGTTGCAATTTCTCAGTAATTTTACCGATTTACTATTTCGGAGTCACCTAGTGCAG", "binding signal": "9460 fluorescence intensity (a.u.)"}, {"sequence": "GTATCTCATCAAATCGTACGCGCGCCTGCATGCATATGGCCGGAGTCACCTAGTGCAG", "binding signal": "9560 fluorescence intensity (a.u.)"}]}]}
